Patent US5264427A, “20-substituted pregnene derivatives and their use as androgen synthesis inhibitors” (priority 1992, dated 1993)
Where two headings read alike, the source gives them in different places. The name of at least one read-out is uncertain.

Target: T1, 5(alpha)-reductase (Homo sapiens, UniProt P31213)
T1 sequence (P31213 1-254): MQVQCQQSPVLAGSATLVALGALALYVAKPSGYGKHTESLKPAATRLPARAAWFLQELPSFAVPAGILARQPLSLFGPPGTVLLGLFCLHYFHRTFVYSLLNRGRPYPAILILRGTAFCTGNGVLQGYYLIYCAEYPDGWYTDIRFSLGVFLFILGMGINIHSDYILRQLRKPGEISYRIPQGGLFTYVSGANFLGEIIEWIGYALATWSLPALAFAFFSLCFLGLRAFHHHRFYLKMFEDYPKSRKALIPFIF
Test: 5(alpha)-reductase assay, human prostatic (BPH) tissue homogenates (Example 1, Table 1)
Settings: testosterone substrate

## C[C@H](C=NO)[C@H]1CC[C@H]2[C@@H]3CCC4=CC(=O)CC[C@]4(C)[C@H]3CC[C@]12C [Compound I-23, 4-pregnen-3-oxo-20(beta)-carboxaldehyde oxime]
read-out: 5(alpha)-reductase Ki (Table 1), human prostatic (BPH) homogenates, N.I. = no inhibition
  Ki: 9.1 µM
read-out: Ki value for the 5(alpha)-reductase, human prostatic (BPH) tissue
  Ki: 0.0091 µM
